This is one part of the list. Shown are side measurements of this screen, not its main read-out; they come without a call. Most of these compounds were active or inconclusive in the main read-out, so they are no random draw. Potencies come from curve fits of mixed quality, noted in brackets.
Test: qHTS Assay for Lipid Storage Modulators in Drosophila S3 Cells;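 as to cell number change: cells counted by Cell Tracker Red CMTPX staining in the red channel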
Details: BODIPY lipid droplet fluorescence, 18-24 h; for cell number change: measured here: cell count max response, cells fed with added oleic acid
Method in brief: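 Laser-scanning cytometry quantifies lipid droplet accumulation (500–530 nm total intensity; droplet/cell object ratio) in oleic acid-fed (400 uM added) Drosophila S3 cells treated with a concentration series. 20 uM Triacsin C defined 100% inhibition.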

[1] = measured here: cell number channel AC50, cells fed with added oleic acid
[2] = measured here: lipid fluorescence (Fed channel) AC50, cells fed with added oleic acid

Compound | cell number change [%] | AC50 [1] | AC50 [2]
COCCn1c(=O)[nH]c2cc(C(=O)Nc3cc(OC)c(OC)c(OC)c3)ccc2c1=O | 14.5 |  | 
COc1ccc(NC(C)=O)cc1NC(=O)CN1CCN(c2ccccn2)CC1 | 38.2 | 23.1 µM [rising, single point] | 20.6 µM [rising, single point]
O=C(Nc1ccc2c(c1)OCCO2)c1cccnc1 | 34.5 |  | 
CN1C(=O)c2ccc(NC(=O)c3cccc4ccccc34)cc2C1=O | 4.5 |  | 29.1 µM [falling, single point]
C/C(Cl)=C\CNC(C)c1ccccc1 (stereo not drawn) | -21.1 |  | 0.411 µM [falling, full curve, poor fit]
Cc1ccc(-c2c3c(=O)n(C)c(=O)n(C)c3cn2Cc2ccccc2)cc1 |  | 0.116 µM [falling, full curve, poor fit] | 6.51 µM [falling, partial curve]
O=C(c1ccc(CS(=O)Cc2ccc(Cl)cc2)o1)N1CCN(c2cccc(Cl)c2)CC1 (stereo not drawn) | 19.1 | 3.26 µM [rising, single point] | 
Cn1c2ccccc2c2cc(C(=O)NNC(=O)CCl)sc21 | -1.1 |  | 
S=c1[nH]nc(Cc2cccc3ccccc23)n1-c1ccccc1 | 39.4 | 20.6 µM [rising, single point] | 
Cc1cc(C(=O)COc2ccccc2Cl)c(C)n1-c1ccc2c(c1)OCO2 | 8.22 | 2.91 µM [rising, partial curve] | 2.91 µM [rising, partial curve]
CC(=O)N1CCN=C1SCc1ccc(F)cc1 | 0.466 |  | 6.51 µM [falling, single point]
CCN1CCN(C(=O)Nc2ccc(Cc3ccc(NC(=O)N4CCN(CC)CC4)cc3)cc2)CC1 | 0.352 |  | 14.6 µM [rising, single point]
Cc1cc(C(=O)CN2CCCC2)c(C)n1-c1ccc(Cl)cc1 | 24.9 |  | 0.0058 µM [rising, full curve, poor fit]
COc1ccc(NC(=O)c2cc(-c3ccccc3)on2)cc1 | -2.92 |  | 
COc1ccc([C@H]2[C@H](C(C)=O)N3N=Cc4ccccc4C3C23C(=O)OC(C)(C)OC3=O)cc1 (stereo partly drawn) |  | 6.51 µM [rising, partial curve] | 6.51 µM [rising, partial curve, poor fit]
COc1ccc(C)cc1NC(=O)CN(C)S(=O)(=O)c1cccs1 | -7.9 |  | 

Compound | cell number change [%] | AC50 [1] | AC50 [2]
O=C(CN1CCN(C(=O)c2ccco2)CC1)Nc1ccc(Cl)c(C(F)(F)F)c1 | -7.73 |  | 9.2 µM [rising, partial curve, poor fit]
CCOC(=O)Cc1nnc(NC(=O)CCc2ccccc2)s1 | -13.1 |  | 0.0058 µM [falling, full curve, poor fit]
CC1(C)CC(=O)C2=C(C1)NCN(CCCN1CCOCC1)C2 | 0.711 |  | 0.517 µM [rising, full curve]
COc1ccc(OC)c(S(=O)(=O)N2CCCC(C(=O)NCc3ccncc3)C2)c1 (stereo not drawn) | 2.99 |  | 0.58 µM [rising, single point]
O=C(NCCN1CCN(c2ccccc2F)CC1)c1ccc2nc3ccccc3c(=O)n2c1 | -5.56 |  | 6.51 µM [rising, partial curve, poor fit]
O=C(NC1CCCC1)c1cccnc1N1CCCCCC1 | -39.5 | 0.164 µM [falling, full curve, poor fit] | 
Cc1cccc(NC(=S)N2CCN(S(C)(=O)=O)CC2)c1 | -3.47 | 6.51 µM [rising, single point] | 11.6 µM [rising, single point]
COc1ccc(CCN2C(=S)NC3CC2(C)Oc2ccc([N+](=O)[O-])cc23)cc1OC (stereo not drawn) | 127 | 9.2 µM [rising, partial curve] | 1.64 µM [rising, partial curve]
C/C(=N\NC(=O)Cc1cccn1C)c1ccco1 | 14.6 |  | 0.651 µM [falling, full curve, poor fit]
CCOC(=O)c1sc(NC(=O)CNCc2ccccn2)c(C(=O)OCC)c1C | 4.62 | 0.231 µM [rising, full curve] | 0.259 µM [rising, full curve]
Cc1nc(SCC(=O)Nc2ccc3c(c2)OCO3)c(C#N)c2c1CCCC2 | -16.2 |  | 1.64 µM [rising, partial curve]
O=C(Nc1nc(-c2cc(F)ccc2F)cs1)c1ccccn1 | 21.3 | 0.082 µM [rising, full curve, poor fit] | 
Cc1cc(C)c(S(=O)(=O)N2CCCCC2CCNC(=O)C(=O)NC2CC2)c(C)c1 (stereo not drawn) | 1.17 |  | 29.1 µM [falling, single point]
COc1ccc(O)c(-c2cc(-c3ccc(F)cc3)n[nH]2)c1 | 1.8 |  | 3.66 µM [rising, full curve]
CCOC(=O)NC(Nc1ccc(OC)cc1)(C(F)(F)F)C(F)(F)F | -61.1 | 0.164 µM [falling, full curve] | 0.13 µM [falling, full curve, poor fit]

Individual results from the entries so far.
Value of O=C(Nc1nc(-c2cc(F)ccc2F)cs1)c1ccccn1 under cell number change [%]: 21.3
Value of COc1ccc(O)c(-c2cc(-c3ccc(F)cc3)n[nH]2)c1 under AC50 [2]: 3.66 µM [rising, full curve]
